We go through 12 sequences from article PMC12746154.

Chains of the proteins cited; added tags and fusions are not shown. Residues count along the entry.
UniProt Q13308, 31-1070: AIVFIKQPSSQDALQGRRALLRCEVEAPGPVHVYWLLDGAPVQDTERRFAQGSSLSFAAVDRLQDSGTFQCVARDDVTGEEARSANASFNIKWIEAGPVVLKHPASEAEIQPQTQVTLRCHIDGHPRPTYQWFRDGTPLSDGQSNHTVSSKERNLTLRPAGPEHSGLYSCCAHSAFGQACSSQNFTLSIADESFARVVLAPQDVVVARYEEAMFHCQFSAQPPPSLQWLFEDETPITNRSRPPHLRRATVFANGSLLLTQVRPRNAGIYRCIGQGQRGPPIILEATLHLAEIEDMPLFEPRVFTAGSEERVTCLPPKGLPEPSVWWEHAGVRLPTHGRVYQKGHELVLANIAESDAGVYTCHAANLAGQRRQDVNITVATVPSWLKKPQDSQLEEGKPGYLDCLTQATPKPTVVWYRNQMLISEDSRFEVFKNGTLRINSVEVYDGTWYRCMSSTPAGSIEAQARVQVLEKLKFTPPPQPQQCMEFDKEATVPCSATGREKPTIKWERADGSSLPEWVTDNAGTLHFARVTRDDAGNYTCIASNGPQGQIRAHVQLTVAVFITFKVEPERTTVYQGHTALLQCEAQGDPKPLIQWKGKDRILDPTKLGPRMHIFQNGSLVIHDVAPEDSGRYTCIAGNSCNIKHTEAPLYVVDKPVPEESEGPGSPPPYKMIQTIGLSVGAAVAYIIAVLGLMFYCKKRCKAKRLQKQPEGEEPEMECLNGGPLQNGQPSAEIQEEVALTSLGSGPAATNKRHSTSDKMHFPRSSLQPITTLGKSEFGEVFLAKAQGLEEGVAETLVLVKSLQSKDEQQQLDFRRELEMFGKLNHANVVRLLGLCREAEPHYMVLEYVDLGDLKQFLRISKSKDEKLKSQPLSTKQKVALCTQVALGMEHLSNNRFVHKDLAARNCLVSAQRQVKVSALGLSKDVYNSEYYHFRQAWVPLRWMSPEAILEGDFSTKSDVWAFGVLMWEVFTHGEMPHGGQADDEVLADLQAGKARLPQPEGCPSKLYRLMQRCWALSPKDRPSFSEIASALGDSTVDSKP
UniProt Q9NZQ7, 19-290: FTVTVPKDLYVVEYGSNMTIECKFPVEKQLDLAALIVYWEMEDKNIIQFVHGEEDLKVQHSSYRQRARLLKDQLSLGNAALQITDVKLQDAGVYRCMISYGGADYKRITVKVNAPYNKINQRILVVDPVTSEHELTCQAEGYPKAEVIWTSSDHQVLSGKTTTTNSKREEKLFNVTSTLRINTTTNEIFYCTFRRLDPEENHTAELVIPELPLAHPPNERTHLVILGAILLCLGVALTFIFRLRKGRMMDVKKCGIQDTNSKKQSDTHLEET

The target in one series is PTK7 on HCT116 cells (UniProt Q13308). Description: flow cytometry. Conditions: HCT116 cells, 4 °C, value only in figure, Flow cytometry on live cells, HCT116 (Sgc8) at 4 °C, protein on the cell surface, label: FAM, folded or branched DNA. On the technique in general: Flow cytometry measures light scatter and fluorescence of single cells or particles in a stream.
For a further series, the target named is PD-L1 on H460 cells (UniProt Q9NZQ7). Description: flow cytometry. To be noted: H460 cells, value only in figure, Flow cytometry on live cells, HCT116 (Sgc8) at 4 °C, protein on the cell surface, label: Cy5, folded or branched DNA.

The exact form of at least one protein or probe is not confirmed. Where cells or extracts were used, other partners may take part.

As for “ATCTAACTGCTGCGCCGCCGGGAAAATACTGTACGGTAGA [Sgc8-DBCO]”, the binding result with PTK7 on HCT116 cells (apparent Kd, 5'-DBCO) was “binds”.

For the sequence “ATCTAACTGCTGCGCCGCCGGGAAAATACTGTACGGTAGA [Sgc8-MOR]”, in the series with PTK7 on HCT116 cells (Kd comparable to Sgc8-DBCO, 5'-DBCO clicked to azide-MOR (morpholine)), the binding result is “binds”.

Take “TACAGGTTCTGGGGGGTGGGTGGGGAACCTGTT [Mj5c-DBCO]”: the binding result with PD-L1 on H460 cells (apparent Kd, 5'-DBCO) is “binds”.

Take “TACAGGTTCTGGGGGGTGGGTGGGGAACCTGTT [Mj5c-DEA]”: the binding result with PD-L1 on H460 cells (Kd comparable to Mj5c-DBCO, 5'-DBCO clicked to azide-DEA (dimethylethanamine)) is listed as “binds”.

Turning to “TACAGGTTCTGGGGGGTGGGTGGGGAACCTGTT [Mj5c-IMZ]”, the binding result in the series with PD-L1 on H460 cells (Kd comparable to Mj5c-DBCO, 5'-DBCO clicked to azide-IMZ) is recorded as “binds”.

For the sequence “TACAGGTTCTGGGGGGTGGGTGGGGAACCTGTT [Mj5c-MOR]”, the binding result with PD-L1 on H460 cells (Kd comparable to Mj5c-DBCO, 5'-DBCO clicked to azide-MOR (morpholine)) is “binds”.

For the sequence “TACAGGTTCTGGGGGGTGGGTGGGGAACCTGTT [Mj5c-PEG3]”, in the series with PD-L1 on H460 cells (Kd comparable to Mj5c-DBCO, 5'-DBCO clicked to azide-mPEG3), the binding result is listed as “binds”.

“TACAGGTTCTGGGGGGTGGGTGGGGAACCTGTT [Mj5c-PEG4]”: in the series with PD-L1 on H460 cells (Kd comparable to Mj5c-DBCO, 5'-DBCO clicked to azide-mPEG4), the binding result was “binds”.

As to “TACAGGTTCTGGGGGGTGGGTGGGGAACCTGTT [Mj5c-PEG14]”, the binding result with PD-L1 on H460 cells (Kd comparable to Mj5c-DBCO, 5'-DBCO clicked to azide-mPEG14) was “binds”.

With “TACAGGTTCTGGGGGGTGGGTGGGGAACCTGTT [Mj5c-PEG24]”, in the series with PD-L1 on H460 cells (Kd comparable to Mj5c-DBCO, 5'-DBCO clicked to azide-mPEG24), the binding result was “binds”.

As for “TACAGGTTCTGGGGGGTGGGTGGGGAACCTGTT [Mj5c-PID]”, the binding result in the series with PD-L1 on H460 cells (Kd comparable to Mj5c-DBCO, 5'-DBCO clicked to azide-PID) is given as “binds”.

Regarding “TACAGGTTCTGGGGGGTGGGTGGGGAACCTGTT [Mj5c-PYD]”, the binding result in the series with PD-L1 on H460 cells (Kd comparable to Mj5c-DBCO, 5'-DBCO clicked to azide-PYD) is recorded as “binds”.
